Results are given in words; binding and its absence hold for the method and conditions named. Binding seen in cells or lysates may run through a third protein. Some binding calls cover weakened binding; strength is not graded here. For some assays here: Where a sequence is shown, tags or fusion partners need not be part of it.
What was measured:
[1] = target: T1, endogenous Desmoglein 3 (Dsg3) (human (endogenous in A431 and HaCaT)) (UniProt P32926); assay: co-IP; RIPA lysates of A431 stable lines (empty vector control V and hDsg3.myc D3); antibodies (anti-myc, anti-Dsg3 5H10 or anti-E-cadherin HECD-1) coupled to Dynabeads, overnight at 4°C; Western blot
T1 sequence: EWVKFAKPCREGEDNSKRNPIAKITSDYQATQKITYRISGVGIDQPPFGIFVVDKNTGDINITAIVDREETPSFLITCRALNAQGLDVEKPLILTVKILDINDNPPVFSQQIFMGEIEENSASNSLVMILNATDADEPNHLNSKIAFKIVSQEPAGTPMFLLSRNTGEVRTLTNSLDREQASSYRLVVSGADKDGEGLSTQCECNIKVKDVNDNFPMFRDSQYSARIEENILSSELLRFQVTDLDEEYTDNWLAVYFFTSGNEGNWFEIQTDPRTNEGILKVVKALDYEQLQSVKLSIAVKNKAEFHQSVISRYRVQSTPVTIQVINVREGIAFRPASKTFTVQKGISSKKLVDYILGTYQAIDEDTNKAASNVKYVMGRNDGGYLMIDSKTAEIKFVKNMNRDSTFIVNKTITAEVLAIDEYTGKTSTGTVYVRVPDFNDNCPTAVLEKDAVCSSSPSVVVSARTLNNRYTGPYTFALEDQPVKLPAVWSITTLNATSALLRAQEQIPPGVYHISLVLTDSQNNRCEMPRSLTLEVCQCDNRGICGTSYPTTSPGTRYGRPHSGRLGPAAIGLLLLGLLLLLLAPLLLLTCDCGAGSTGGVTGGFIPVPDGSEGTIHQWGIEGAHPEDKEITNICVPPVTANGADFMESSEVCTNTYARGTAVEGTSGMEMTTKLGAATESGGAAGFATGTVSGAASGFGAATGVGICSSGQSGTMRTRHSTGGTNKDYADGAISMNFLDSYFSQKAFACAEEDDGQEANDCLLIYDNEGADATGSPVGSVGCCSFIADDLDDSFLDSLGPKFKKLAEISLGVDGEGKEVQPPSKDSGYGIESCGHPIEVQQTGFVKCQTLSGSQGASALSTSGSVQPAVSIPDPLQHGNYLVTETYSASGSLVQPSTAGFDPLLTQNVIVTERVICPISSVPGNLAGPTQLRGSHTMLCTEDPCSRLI

Protein sequences, listed by entry. Tags and fused reporters are not part of them.
UniProt P35222: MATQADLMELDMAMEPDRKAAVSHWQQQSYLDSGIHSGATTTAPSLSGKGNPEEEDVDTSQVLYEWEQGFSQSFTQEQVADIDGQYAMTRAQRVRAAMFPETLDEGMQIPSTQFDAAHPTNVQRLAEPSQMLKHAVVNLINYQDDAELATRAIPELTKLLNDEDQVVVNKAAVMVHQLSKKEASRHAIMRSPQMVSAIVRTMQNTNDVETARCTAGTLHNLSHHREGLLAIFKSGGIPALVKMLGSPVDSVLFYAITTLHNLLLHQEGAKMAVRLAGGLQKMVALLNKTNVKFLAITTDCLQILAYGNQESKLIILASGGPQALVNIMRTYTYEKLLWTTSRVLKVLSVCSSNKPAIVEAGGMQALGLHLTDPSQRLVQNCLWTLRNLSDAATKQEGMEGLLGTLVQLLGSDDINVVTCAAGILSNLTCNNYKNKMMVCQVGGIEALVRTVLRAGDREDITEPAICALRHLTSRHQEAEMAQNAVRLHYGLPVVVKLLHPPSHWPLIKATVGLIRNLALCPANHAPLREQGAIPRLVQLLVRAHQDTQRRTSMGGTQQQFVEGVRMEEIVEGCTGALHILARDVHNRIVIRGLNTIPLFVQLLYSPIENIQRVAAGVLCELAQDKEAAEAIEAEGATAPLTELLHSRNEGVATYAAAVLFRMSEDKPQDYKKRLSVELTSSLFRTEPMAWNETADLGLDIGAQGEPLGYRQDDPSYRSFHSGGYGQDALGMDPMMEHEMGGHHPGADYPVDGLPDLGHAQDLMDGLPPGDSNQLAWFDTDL

[2] = target: T2, full length human Dsg3 tagged with the c-myc epitope (hDsg3.myc) (human) (UniProt P32926); assay: as above
T2 sequence: T1 sequence

binding [1]: binds
binding [2]: binds
Substance: β-catenin (from UniProt P35222 1-781)

Reference: publication PMC2997060
